Data as given in patent US20200339676A1 (University of California, published 2020).
These are yes or no findings as the source states them, for the method shown. In cells and extracts the contact can be indirect. Some binding calls cover weakened binding; strength is not graded here.

Protein sequences, listed by entry. Tags and fused reporters are not part of them. Residues count along the entry.
UniProt P31695, residues 21-1964: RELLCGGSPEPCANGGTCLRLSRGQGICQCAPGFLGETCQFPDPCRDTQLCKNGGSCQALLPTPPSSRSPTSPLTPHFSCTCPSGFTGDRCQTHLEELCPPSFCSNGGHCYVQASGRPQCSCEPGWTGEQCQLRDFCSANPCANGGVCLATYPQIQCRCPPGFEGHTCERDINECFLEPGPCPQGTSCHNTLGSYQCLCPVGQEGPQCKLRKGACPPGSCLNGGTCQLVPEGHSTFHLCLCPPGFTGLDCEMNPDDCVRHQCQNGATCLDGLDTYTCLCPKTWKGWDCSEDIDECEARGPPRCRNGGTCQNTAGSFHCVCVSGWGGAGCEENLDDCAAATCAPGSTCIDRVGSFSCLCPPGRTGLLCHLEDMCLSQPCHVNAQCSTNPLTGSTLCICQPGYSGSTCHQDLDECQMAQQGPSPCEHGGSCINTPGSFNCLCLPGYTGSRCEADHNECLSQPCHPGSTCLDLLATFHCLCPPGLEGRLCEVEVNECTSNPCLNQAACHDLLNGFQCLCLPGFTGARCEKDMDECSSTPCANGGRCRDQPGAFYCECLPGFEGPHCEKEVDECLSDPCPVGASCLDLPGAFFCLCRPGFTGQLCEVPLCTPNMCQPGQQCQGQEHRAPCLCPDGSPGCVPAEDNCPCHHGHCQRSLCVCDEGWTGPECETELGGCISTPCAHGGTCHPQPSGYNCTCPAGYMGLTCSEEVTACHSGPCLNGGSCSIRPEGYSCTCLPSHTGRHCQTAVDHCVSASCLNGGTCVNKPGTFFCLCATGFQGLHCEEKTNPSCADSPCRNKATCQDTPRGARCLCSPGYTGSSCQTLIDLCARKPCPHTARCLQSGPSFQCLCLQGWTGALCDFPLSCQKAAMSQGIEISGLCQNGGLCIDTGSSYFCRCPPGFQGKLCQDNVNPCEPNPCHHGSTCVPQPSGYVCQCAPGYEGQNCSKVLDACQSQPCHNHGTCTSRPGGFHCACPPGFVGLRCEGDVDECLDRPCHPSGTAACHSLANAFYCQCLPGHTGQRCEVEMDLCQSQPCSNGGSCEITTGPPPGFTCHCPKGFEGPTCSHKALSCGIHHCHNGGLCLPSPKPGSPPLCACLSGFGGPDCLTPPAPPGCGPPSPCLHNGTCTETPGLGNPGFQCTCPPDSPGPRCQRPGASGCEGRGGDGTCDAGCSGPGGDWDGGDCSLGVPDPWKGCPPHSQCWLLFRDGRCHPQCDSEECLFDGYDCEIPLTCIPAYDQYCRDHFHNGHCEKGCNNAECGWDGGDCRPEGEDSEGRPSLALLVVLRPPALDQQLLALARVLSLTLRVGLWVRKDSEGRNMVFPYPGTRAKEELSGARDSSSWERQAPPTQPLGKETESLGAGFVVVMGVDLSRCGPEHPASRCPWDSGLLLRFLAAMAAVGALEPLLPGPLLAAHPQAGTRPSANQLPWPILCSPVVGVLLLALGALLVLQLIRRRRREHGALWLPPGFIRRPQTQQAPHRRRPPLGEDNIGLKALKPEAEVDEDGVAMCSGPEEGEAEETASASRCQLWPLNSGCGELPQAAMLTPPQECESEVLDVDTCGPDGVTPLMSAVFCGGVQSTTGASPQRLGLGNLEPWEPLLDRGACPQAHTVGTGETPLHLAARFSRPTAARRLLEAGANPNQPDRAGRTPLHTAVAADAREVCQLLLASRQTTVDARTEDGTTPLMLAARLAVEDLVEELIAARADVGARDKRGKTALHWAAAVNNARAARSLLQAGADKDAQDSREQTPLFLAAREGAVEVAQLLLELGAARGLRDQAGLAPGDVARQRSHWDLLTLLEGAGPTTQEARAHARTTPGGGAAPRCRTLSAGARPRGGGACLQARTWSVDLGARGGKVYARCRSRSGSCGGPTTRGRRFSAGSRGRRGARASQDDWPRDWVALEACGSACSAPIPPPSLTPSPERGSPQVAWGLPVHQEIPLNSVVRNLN
UniProt Q99466, residues 24-2003: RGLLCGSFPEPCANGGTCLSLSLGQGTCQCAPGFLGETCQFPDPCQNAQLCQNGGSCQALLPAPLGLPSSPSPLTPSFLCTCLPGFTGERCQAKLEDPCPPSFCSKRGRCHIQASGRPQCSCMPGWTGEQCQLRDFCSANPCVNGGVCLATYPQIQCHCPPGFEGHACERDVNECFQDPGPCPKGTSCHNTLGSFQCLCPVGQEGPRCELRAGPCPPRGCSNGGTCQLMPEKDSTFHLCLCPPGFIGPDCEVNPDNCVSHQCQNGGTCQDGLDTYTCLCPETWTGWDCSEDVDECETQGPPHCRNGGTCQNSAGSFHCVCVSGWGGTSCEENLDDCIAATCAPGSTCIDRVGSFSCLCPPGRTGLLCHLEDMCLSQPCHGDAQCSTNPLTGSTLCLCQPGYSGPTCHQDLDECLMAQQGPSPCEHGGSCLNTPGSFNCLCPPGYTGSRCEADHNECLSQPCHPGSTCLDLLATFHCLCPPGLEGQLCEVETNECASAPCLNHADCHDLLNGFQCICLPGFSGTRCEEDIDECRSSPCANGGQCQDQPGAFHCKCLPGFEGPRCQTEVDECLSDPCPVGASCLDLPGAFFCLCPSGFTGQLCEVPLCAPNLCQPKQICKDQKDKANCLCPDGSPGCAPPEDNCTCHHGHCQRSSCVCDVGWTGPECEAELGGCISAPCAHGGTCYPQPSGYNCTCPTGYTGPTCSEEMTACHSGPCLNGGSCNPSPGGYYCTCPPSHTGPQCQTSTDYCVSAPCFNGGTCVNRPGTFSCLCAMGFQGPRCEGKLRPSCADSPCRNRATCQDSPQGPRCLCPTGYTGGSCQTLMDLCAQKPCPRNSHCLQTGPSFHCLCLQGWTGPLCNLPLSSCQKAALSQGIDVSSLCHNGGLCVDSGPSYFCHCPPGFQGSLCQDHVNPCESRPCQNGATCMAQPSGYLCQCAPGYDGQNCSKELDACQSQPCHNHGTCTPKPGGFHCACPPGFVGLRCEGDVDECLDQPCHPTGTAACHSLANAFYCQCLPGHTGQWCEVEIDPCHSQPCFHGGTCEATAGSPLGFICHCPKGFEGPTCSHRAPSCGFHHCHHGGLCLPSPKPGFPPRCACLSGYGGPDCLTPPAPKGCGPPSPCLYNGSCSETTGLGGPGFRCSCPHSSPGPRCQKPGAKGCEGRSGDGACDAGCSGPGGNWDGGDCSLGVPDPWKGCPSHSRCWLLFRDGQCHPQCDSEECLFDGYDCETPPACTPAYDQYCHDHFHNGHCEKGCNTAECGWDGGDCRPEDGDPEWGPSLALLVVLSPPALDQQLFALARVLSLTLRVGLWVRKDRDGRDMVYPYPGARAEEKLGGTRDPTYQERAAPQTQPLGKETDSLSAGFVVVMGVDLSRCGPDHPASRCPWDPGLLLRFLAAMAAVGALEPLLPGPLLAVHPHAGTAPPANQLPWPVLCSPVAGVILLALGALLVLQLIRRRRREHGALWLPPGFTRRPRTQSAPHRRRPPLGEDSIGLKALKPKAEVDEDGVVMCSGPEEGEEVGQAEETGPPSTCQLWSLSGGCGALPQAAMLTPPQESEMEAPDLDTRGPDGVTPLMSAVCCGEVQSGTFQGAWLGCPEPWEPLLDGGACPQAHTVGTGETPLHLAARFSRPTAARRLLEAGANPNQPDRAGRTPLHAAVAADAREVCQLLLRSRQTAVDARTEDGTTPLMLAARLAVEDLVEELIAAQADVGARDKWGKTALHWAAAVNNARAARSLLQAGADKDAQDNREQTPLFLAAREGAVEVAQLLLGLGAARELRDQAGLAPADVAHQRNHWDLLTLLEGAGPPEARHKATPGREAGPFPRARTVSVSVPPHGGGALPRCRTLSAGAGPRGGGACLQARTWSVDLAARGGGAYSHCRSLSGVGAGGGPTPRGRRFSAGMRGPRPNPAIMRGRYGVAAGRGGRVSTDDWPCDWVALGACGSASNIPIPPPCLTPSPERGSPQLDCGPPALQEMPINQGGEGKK
UniProt O89026, residues 20-1612: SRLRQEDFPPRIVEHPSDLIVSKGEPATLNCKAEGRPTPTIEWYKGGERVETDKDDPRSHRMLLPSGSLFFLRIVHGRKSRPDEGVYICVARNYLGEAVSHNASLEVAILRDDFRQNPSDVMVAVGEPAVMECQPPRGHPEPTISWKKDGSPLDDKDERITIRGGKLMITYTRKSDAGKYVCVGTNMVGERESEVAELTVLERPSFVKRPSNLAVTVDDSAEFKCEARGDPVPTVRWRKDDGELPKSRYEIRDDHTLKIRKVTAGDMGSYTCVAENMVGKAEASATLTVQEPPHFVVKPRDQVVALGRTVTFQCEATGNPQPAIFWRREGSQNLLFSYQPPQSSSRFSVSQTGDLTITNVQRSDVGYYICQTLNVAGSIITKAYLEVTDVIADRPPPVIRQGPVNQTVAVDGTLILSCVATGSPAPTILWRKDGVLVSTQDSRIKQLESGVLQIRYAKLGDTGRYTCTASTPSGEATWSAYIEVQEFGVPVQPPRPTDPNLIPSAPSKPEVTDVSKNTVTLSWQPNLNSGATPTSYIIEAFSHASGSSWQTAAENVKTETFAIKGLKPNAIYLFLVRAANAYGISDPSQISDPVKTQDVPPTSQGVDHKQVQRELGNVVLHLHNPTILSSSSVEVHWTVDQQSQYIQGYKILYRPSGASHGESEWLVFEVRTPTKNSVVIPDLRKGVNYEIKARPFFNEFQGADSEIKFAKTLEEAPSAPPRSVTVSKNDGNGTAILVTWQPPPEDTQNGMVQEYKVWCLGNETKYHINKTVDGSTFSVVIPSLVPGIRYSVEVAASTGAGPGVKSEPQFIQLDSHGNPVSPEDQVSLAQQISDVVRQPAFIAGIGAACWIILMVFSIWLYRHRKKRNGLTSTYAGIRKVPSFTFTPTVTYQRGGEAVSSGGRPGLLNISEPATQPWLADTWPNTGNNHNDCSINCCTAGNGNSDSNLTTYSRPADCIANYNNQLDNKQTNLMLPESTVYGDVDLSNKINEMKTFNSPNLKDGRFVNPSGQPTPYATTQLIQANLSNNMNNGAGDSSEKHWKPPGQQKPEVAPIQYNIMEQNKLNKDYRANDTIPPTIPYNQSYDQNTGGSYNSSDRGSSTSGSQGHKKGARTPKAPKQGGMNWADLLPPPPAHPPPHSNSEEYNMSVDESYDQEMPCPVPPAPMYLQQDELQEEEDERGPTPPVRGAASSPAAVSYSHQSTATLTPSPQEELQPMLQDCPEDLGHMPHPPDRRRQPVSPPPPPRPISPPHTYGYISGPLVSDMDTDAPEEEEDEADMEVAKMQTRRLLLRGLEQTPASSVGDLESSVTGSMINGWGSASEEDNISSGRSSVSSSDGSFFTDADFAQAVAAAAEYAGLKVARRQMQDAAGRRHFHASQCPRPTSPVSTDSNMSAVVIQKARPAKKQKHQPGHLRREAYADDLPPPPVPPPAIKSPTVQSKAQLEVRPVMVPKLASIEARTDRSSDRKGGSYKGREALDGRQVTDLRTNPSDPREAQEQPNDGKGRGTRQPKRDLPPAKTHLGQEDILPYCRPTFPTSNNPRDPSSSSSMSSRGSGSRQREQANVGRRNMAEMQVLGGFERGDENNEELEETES

How the values were obtained:
[1] = molecular target: Endogenous ROBO1 (MDA-MB-231 and HEK293 cell lysates) (UniProt Q9Y6N7); test: co-immunoprecipitation of endogenous proteins with a ROBO1 antibody, HEK cells; two intense ROBO2 bands after SLIT2 and SLIT3 treatment (1 ug each, four hours)
[2] = molecular target: Endogenous ROBO1 (MDA-MB-231 and HEK293 cell lysates) (UniProt Q9Y6N7); test: co-immunoprecipitation of endogenous proteins, HEK293 lysates (FIG. 5G, n=1)
[3] = molecular target: Endogenous NOTCH4 (HC11 cells) (UniProt P31695); test: co-immunoprecipitation with anti-ROBO1 from HC11 lysates, with and without SLIT2 and SLIT3; less complex with SLIT2/SLIT3 in late stage primed cells
[4] = molecular target: Endogenous NOTCH4 (HC11 cells) (UniProt P31695); test: co-immunoprecipitation of endogenous proteins, HC11 lysates (FIG. 3M, n=1)
[5] = molecular target: Endogenous NOTCH4 (MDA-MB-231 cell lysate) (UniProt Q99466); test: co-immunoprecipitation of endogenous proteins, MDA-MB-231 lysates (FIG. 3H, n=3)
[6] = molecular target: Endogenous NOTCH4 (MDA-MB-231 cell lysate) (UniProt Q99466); test: co-immunoprecipitation of endogenous proteins, MDA-MB-231 lysates, Western blot

Endogenous ROBO2 (HEK293 cell lysate) (from UniProt Q9HCK4 22-1378) (receptor)
binding [1]: binds | binding [2]: binds

Endogenous ROBO1 (HC11 cells) (from UniProt O89026 20-1612) (receptor)
binding [3]: binds | binding [4]: binds

B1: Endogenous ROBO1 (MDA-MB-231 and HEK293 cell lysates) (receptor, UniProt Q9Y6N7 26-1651, looked up)
chain: QLIPDPEDVERGNDHGTPIPTSDNDDNSLGYTGSRLRQEDFPPRIVEHPSDLIVSKGEPATLNCKAEGRPTPTIEWYKGGERVETDKDDPRSHRMLLPSGSLFFLRIVHGRKSRPDEGVYVCVARNYLGEAVSHNASLEVAILRDDFRQNPSDVMVAVGEPAVMECQPPRGHPEPTISWKKDGSPLDDKDERITIRGGKLMITYTRKSDAGKYVCVGTNMVGERESEVAELTVLERPSFVKRPSNLAVTVDDSAEFKCEARGDPVPTVRWRKDDGELPKSRYEIRDDHTLKIRKVTAGDMGSYTCVAENMVGKAEASATLTVQEPPHFVVKPRDQVVALGRTVTFQCEATGNPQPAIFWRREGSQNLLFSYQPPQSSSRFSVSQTGDLTITNVQRSDVGYYICQTLNVAGSIITKAYLEVTDVIADRPPPVIRQGPVNQTVAVDGTFVLSCVATGSPVPTILWRKDGVLVSTQDSRIKQLENGVLQIRYAKLGDTGRYTCIASTPSGEATWSAYIEVQEFGVPVQPPRPTDPNLIPSAPSKPEVTDVSRNTVTLSWQPNLNSGATPTSYIIEAFSHASGSSWQTVAENVKTETSAIKGLKPNAIYLFLVRAANAYGISDPSQISDPVKTQDVLPTSQGVDHKQVQRELGNAVLHLHNPTVLSSSSIEVHWTVDQQSQYIQGYKILYRPSGANHGESDWLVFEVRTPAKNSVVIPDLRKGVNYEIKARPFFNEFQGADSEIKFAKTLEEAPSAPPQGVTVSKNDGNGTAILVSWQPPPEDTQNGMVQEYKVWCLGNETRYHINKTVDGSTFSVVIPFLVPGIRYSVEVAASTGAGSGVKSEPQFIQLDAHGNPVSPEDQVSLAQQISDVVKQPAFIAGIGAACWIILMVFSIWLYRHRKKRNGLTSTYAGIRKVPSFTFTPTVTYQRGGEAVSSGGRPGLLNISEPAAQPWLADTWPNTGNNHNDCSISCCTAGNGNSDSNLTTYSRPADCIANYNNQLDNKQTNLMLPESTVYGDVDLSNKINEMKTFNSPNLKDGRFVNPSGQPTPYATTQLIQSNLSNNMNNGSGDSGEKHWKPLGQQKQEVAPVQYNIVEQNKLNKDYRANDTVPPTIPYNQSYDQNTGGSYNSSDRGSSTSGSQGHKKGARTPKVPKQGGMNWADLLPPPPAHPPPHSNSEEYNISVDESYDQEMPCPVPPARMYLQQDELEEEEDERGPTPPVRGAASSPAAVSYSHQSTATLTPSPQEELQPMLQDCPEETGHMQHQPDRRRQPVSPPPPPRPISPPHTYGYISGPLVSDMDTDAPEEEEDEADMEVAKMQTRRLLLRGLEQTPASSVGDLESSVTGSMINGWGSASEEDNISSGRSSVSSSDGSFFTDADFAQAVAAAAEYAGLKVARRQMQDAAGRRHFHASQCPRPTSPVSTDSNMSAAVMQKTRPAKKLKHQPGHLRRETYTDDLPPPPVPPPAIKSPTAQSKTQLEVRPVVVPKLPSMDARTDRSSDRKGSSYKGREVLDGRQVVDMRTNPGDPREAQEQQNDGKGRGNKAAKRDLPPAKTHLIQEDILPYCRPTFPTSNNPRDPSSSSSMSSRGSGSRQREQANVGRRNIAEMQVLGGYERGEDNNEELEETES
notes: Endogenous full-length receptor in detergent cell lysate, immunoprecipitated with an anti-ROBO1 antibody; Human is inferred from the cell lines; also called R1
binding [5]: binds | binding [6]: binds
